In publication PMC10265878:
No constants are given. Whether binding was seen depends on the method and setting. Binding seen in cells or lysates may run through a third protein. Some binding calls cover weakened binding; strength is not graded here.

Chains of the proteins cited; added tags and fusions are not shown.
UniProt Q92769: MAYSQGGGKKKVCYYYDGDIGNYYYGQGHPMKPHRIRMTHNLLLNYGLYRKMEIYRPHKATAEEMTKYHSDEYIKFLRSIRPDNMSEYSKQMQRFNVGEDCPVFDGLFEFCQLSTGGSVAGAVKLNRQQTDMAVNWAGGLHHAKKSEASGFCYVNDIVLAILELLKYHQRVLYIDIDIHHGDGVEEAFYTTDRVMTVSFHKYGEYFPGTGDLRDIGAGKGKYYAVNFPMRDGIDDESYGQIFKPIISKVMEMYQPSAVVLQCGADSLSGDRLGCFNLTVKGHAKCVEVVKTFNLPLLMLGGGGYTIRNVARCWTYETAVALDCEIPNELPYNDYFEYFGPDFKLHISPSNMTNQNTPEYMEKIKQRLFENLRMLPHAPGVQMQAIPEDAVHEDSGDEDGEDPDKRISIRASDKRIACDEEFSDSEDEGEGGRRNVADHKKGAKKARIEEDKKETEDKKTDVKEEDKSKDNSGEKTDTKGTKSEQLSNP
UniProt P51608: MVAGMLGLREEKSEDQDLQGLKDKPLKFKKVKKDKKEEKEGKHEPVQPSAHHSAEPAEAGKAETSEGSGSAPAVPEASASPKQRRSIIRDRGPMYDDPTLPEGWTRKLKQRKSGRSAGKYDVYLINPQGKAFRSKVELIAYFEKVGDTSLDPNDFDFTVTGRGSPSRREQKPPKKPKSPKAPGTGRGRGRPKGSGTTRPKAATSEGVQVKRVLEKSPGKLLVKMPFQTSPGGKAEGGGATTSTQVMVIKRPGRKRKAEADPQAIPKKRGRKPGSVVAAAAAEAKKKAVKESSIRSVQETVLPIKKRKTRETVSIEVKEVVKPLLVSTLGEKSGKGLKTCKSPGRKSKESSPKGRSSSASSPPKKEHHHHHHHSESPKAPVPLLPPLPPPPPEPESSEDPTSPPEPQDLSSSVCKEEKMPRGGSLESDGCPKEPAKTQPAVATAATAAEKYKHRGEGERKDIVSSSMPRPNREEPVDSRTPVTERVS

Molecular target: histone deacetylase (HDAC) 2 (human (endogenous in WI-38)) (UniProt Q92769)
Experiment: co-IP; WI-38 cell lysates, cells with or without ET-1 stimulation for 20 min; supernatants incubated with protein A/G beads and antibodies specific for HDAC2, Sin3A or MeCP2 at 4 °C overnight; partners detected by Western blotting

binding: binds
Substance: methyl-CpG-binding protein (MeCP) 2 (from UniProt P51608 1-486)
